In experiment [1] the target is endogenous Keap1 (human (endogenous in HEK293T)) (UniProt Q14145). The experiment can be described thus: co-IP; HEK293T treated with DMSO or HNE (12 uM) for 1.5 h; lysate (50 mM Tris pH 7.6, 150 mM NaCl, 1% Triton-X-100) on mouse anti-Keap1 bound protein A resin at 4 °C overnight, western blot.
In a further experiment the target is His6-Halo-TEV-Keap1 (UniProt Q14145). As to the kind of experiment: pull-down; HEK293T transfected with His6-Halo-TeV-Keap1 or empty vector, treated with 25 uM HNE-alkyne or DMSO for 1.5 h; lysate on TALON resin 1 h at 4 °C, imidazole elution, western blot; the paper calls it co-immunoprecipitation/western blot.

Chains of the proteins cited; added tags and fusions are not shown.
UniProt Q14145: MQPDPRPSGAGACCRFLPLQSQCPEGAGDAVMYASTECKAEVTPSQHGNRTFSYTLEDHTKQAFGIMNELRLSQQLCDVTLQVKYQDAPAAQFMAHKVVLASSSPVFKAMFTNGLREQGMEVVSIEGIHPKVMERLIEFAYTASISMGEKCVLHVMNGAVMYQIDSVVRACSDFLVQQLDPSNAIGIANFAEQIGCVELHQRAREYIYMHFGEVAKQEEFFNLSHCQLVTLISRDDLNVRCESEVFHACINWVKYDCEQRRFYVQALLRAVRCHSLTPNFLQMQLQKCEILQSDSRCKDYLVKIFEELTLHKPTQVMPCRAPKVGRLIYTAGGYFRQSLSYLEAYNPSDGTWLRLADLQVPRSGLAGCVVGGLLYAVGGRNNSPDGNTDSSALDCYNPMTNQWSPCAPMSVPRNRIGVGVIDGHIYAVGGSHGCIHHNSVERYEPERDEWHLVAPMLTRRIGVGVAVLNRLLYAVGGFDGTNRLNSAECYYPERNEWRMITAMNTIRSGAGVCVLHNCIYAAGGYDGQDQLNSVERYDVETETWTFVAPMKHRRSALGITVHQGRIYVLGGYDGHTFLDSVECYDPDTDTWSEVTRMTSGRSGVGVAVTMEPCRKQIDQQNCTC

These are yes or no findings as the source states them, for the method shown. In cells and extracts the contact can be indirect. Some binding calls cover weakened binding; strength is not graded here.

B1: Wdr1 (protein, UniProt O75083 1-606)
chain: MPYEIKKVFASLPQVERGVSKIIGGDPKGNNFLYTNGKCVILRNIDNPALADIYTEHAHQVVVAKYAPSGFYIASGDVSGKLRIWDTTQKEHLLKYEYQPFAGKIKDIAWTEDSKRIAVVGEGREKFGAVFLWDSGSSVGEITGHNKVINSVDIKQSRPYRLATGSDDNCAAFFEGPPFKFKFTIGDHSRFVNCVRFSPDGNRFATASADGQIYIYDGKTGEKVCALGGSKAHDGGIYAISWSPDSTHLLSASGDKTSKIWDVSVNSVVSTFPMGSTVLDQQLGCLWQKDHLLSVSLSGYINYLDRNNPSKPLHVIKGHSKSIQCLTVHKNGGKSYIYSGSHDGHINYWDSETGENDSFAGKGHTNQVSRMTVDESGQLISCSMDDTVRYTSLMLRDYSGQGVVKLDVQPKCVAVGPGGYAVVVCIGQIVLLKDQRKCFSIDNPGYEPEVVAVHPGGDTVAIGGVDGNVRLYSILGTTLKDEGKLLEAKGPVTDVAYSHDGAFLAVCDASKVVTVFSVADGYSENNVFYGHHAKIVCLAWSPDNEHFASGGMDMMVYVWTLSDPETRVKIQDAHRLHHVSSLAWLDEHTLVTTSHDASVKEWTITY
As to B1, the binding result (in experiment [1]; in the experiment with His6-Halo-TEV-Keap1) was “binds” each time.

(Values after publication PMC8484674.)
